In article PMC6152987:
The exact form of at least one protein or probe is not confirmed. Negatives hold for the conditions tested.

Test system: GST-CBF-1Δ(187-214) (Neurospora crassa)
Experiment: EMSA
Conditions: poly(dI-dC); 20 mM HEPES pH 7.9, 1 mM EDTA, 2 mM MgCl2, 10% glycerol, 20 uM ZnCl2, 0.1 ug poly(dI-dC), 3 ug protein in 20 uL, 30 min on ice; 4% native PAGE, 0.5x TBE, 4 C; recombinant protein; protein details: GST (N-terminal, pGEX-4T-1); label: 32P (5' by T4 PNK)

CGTCCTGATGCCGCTGCAAGACCGATGACGCTGCAAAATTGAGATCTA (double strand) [frq C-box probe (ACF57/ACF58)]
binding result: no binding
